Measurements: PubChem BioAssay AID2685 (National Center for Advancing Translational Sciences (NCATS), 2010)
The other results are listed elsewhere or left out. Shown are side measurements of this screen, not its main read-out; they come without a call. Most of these compounds were active or inconclusive in the main read-out, so they are no random draw. Potencies come from curve fits of mixed quality, noted in brackets.

Test: qHTS Assay for Lipid Storage Modulators in Drosophila S3 Cells;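 as to cell number change: cells counted by Cell Tracker Red CMTPX staining in the red channel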
Conditions: BODIPY lipid droplet fluorescence, 18-24 h; for cell number change: measured here: cell count max response, cells fed with added oleic acid
Summary of the method: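 Drosophila S3 cells loaded with oleic acid (400 uM, as added) and compounds at several concentrations; lipid droplets imaged by 488-nm laser-scanning cytometry, 500–530 nm intensity and object ratio to cell channel. Percent activity normalized to 20 uM Triacsin C.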

[1] = measured here: lipid fluorescence (Fed channel) AC50, cells fed with added oleic acid
[2] = measured here: cell number channel AC50, cells fed with added oleic acid

| SMILES | cell number change [%] | AC50 [1] | AC50 [2] |
| --- | --- | --- | --- |
| CNC(=O)c1ccc(=O)n(Cc2cccc(C(F)(F)F)c2)c1 | -23 | 18.4 µM [rising, single point] |  |
| O=S(=O)(Cc1cc(N2CCOCC2)nc(-c2ccccn2)n1)c1ccccc1 | 0.678 |  | 6.51 µM [falling, single point] |
| [O-][n+]1onc2c1C(N1CCOCC1)CCC2N1CCOCC1 (stereo unspecified) | -67.4 | 4.11 µM [falling, full curve] | 0.461 µM [falling, full curve] |
| COc1cccc(OC)c1NC(=O)CN1CCN(C)CC1 | -19.6 | 20.6 µM [falling, single point] |  |
| C#CCNc1nc(C(C)C)nc2c1nnn2Cc1ccccc1F | -21.1 | 0.58 µM [rising, full curve, poor fit] |  |
| COc1ccc(-c2nnc(NC(=O)c3ccccc3C)o2)cc1 | -59.4 | 16.4 µM [falling, partial curve] | 23.1 µM [falling, partial curve, poor fit] |
| CCN(CC)c1nc2c(c(=O)[nH]c(=O)n2C)n1CCOc1ccccc1 | -16.1 |  |  |
| CC(C)[C@H](NS(=O)(=O)c1ccc2c(c1)OCCO2)C(=O)OCC(=O)Nc1cc(Cl)ccc1Cl | -14.4 | 20.6 µM [falling, single point] |  |
| CC1=Nc2cc(C(=O)NCCCN3CCOCC3)ccc2Sc2c(C)ccc(C)c21 | 2.75 | 4.11 µM [rising, single point] |  |
| COCCN(CCOC)C(=S)Nc1cc(S(=O)(=O)N(C)C)ccc1C | 80.6 | 0.00461 µM [rising, full curve, poor fit] | 32.6 µM [rising, partial curve, poor fit] |
| NS(=O)(=O)c1ccc(NC(=S)N2CCN(c3cccc(Cl)c3)CC2)cc1 | -13.6 |  |  |
| CCOc1ccc(-n2c(=O)[nH]c3sc4c(c3c2=O)CCCC4)cc1 | 8.09 |  | 0.146 µM [falling, full curve, poor fit] |
| CCOc1cccc(-c2c(C(=O)N/N=C/c3ccc(C)s3)nnn2-c2nonc2N)c1 | -23.3 | 6.51 µM [falling, partial curve] | 2.91 µM [falling, partial curve, poor fit] |
| Cc1ccc(C(=O)C2=C(O)C(=O)N(Cc3cccnc3)C2c2ccc(Cl)c(Cl)c2)o1 (stereo unspecified) | -1.28 |  |  |
| COc1ccccc1/C=C1/SC(=S)N(CCC(=O)Nc2cccnc2)C1=O | 34.6 |  | 0.146 µM [rising, full curve, poor fit] |
| CCc1ccc(NC(=O)COC(=O)C2(c3ccc(Cl)cc3)CCCC2)cc1 | -25.8 | 6.51 µM [falling, partial curve] |  |
| COc1ccc(/C(N)=N/OC(=O)Cc2ccc(C)cc2)cc1 | 24.7 | 0.092 µM [falling, single point] |  |
| Cc1noc2nc(-c3cccs3)cc(-c3nnc4n3CCCCC4)c12 | 0.692 | 6.51 µM [falling, single point] |  |
| COc1ccc(CNC(=O)CN(C)Cc2ccccc2F)cc1OC |  |  | 0.13 µM [rising, full curve, poor fit] |
| CC(=O)N(C(C)=O)c1c(N2CCOCC2)c2ccccc2oc1=O | -13 |  | 3.66 µM [falling, single point] |
| S=C(NC1CCCCC1)NN1CCOCC1 | -13.9 |  | 0.082 µM [rising, full curve, poor fit] |

| SMILES | cell number change [%] | AC50 [1] | AC50 [2] |
| --- | --- | --- | --- |
| COC(=O)CN1C(=O)[C@H]2[C@@H](C3CC3)N3C(=O)CN(Cc4ccccn4)C(=O)[C@@]3(Cc3ccccc3)[C@H]2C1=O | -9.88 |  |  |
| CC(=O)Nc1ccc(S(=O)(=O)NCCC(=O)OCc2ccccc2F)cc1 | -7.39 | 29.1 µM [falling, single point] |  |
| COc1ccccc1CN(C)C(=O)c1ccc(S(=O)(=O)NCc2ccco2)cc1 | 11.6 | 0.326 µM [rising, full curve] |  |
| O=C(CSc1ncnc2c1cnn2CCc1ccccc1)Nc1cccc(C(F)(F)F)c1 | 17.6 | 3.26 µM [rising, partial curve] |  |
| CCOC(=O)C1=C(C)N2C(=C(C#N)[C@@H]1c1ccc(C(=O)OC)cc1)SC[C@@]2(O)C(C)(C)C | 7.18 | 0.164 µM [rising, full curve, poor fit] |  |
| Cc1ccc2c(c1)NCC(C(=O)NC1CCCCC1)O2 (stereo unspecified) | 2.08 |  | 3.66 µM [rising, single point] |
| COc1ccc(-c2nnc3ccc(SCC(=O)N4CCCCC4)nn23)cc1OC |  | 6.51 µM [rising, single point] |  |
| O=C(CCS(=O)(=O)c1ccc(Cl)cc1)NCCC1=CCCCC1 | 19.9 | 0.631 µM [rising, full curve, poor fit] |  |
| CCN(CC(=O)NC)S(=O)(=O)c1ccc(Br)cc1 | -24.4 | 0.651 µM [falling, full curve, poor fit] | 0.00461 µM [falling, full curve, poor fit] |
| CC(C)(C)OC(=O)N[C@@H](Cc1ccccc1)c1nnc(SCC(=O)c2ccc(Cl)cc2)o1 | 14.3 |  |  |
| C/C(CCN1CCc2nc(-c3ccccc3)c(-c3ccccc3)cc2C1)=N\OC[C@@H](C)[C@H](OCc1ccccc1)C(C)C | -9.25 | 18.4 µM [rising, partial curve] |  |
| COc1ccc(NC(=S)N(CCC(C)C)C2CCN(C(C)=O)CC2)cc1 | -15.6 | 0.092 µM [falling, full curve, poor fit] |  |
| CC(=O)c1ccc(C(=O)NC2CCCN(Cc3ccccc3F)C2)cc1 (stereo unspecified) | 10.3 |  |  |
| Cc1ccccc1OCCC(=O)OCC(=O)Nc1c(F)cccc1F | -15.5 |  |  |
| COc1cc(CN2CCCC(C(=O)Nc3cccc(-n4cccn4)c3)C2)ccc1F (stereo unspecified) | -6.45 | 10.3 µM [falling, partial curve, poor fit] |  |
| COc1cccc(C(C)N(C)Cc2nc(COc3ccccc3)no2)c1 (stereo unspecified) | 30.5 |  | 4.11 µM [rising, full curve] |
| N#Cc1ccc(-c2cn(-c3ccccc3)c3[n+]2CCCS3)cc1 | -25.3 | 20.6 µM [falling, single point] | 0.58 µM [falling, full curve, poor fit] |
| Cc1oc2cc3oc(=O)c(CC(=O)N[C@@H](C)C(=O)NC(Cc4ccc(Cl)cc4)C(=O)O)c(C)c3cc2c1C (stereo partly specified) | -24.3 | 0.184 µM [falling, full curve, poor fit] |  |
| COc1cc(CNC(=O)c2cccc(COc3ccc(Cl)cc3)c2)cc(OC)c1 | -8.55 |  |  |
| CC(=O)Nc1c([N+](=O)[O-])cc2[nH]c(=O)[nH]c2c1[N+](=O)[O-] | -5.91 |  |  |
| CN(CCOc1ccc(Cl)cc1)CC(O)c1ccccc1 (stereo unspecified) |  | 6.51 µM [falling, single point] |  |

| SMILES | cell number change [%] | AC50 [1] | AC50 [2] |
| --- | --- | --- | --- |
| Cc1cccc(C(=O)Nc2cccc(C(=O)NC3CCCC3)c2)c1 |  | 6.51 µM [falling, single point] |  |
| O=C(NC1CC1)C1=C[C@@H](c2c[nH]c3ccccc23)C[C@@H](OCCCCO)O1 | -7.76 | 32.6 µM [falling, partial curve] |  |
| Cn1c(SCC(=O)NNC(=S)Nc2ccccc2)nnc1-c1ccncc1 | -1.2 | 6.51 µM [falling, single point] |  |
| O=C(O)c1ccccc1NSc1ccccc1[N+](=O)[O-] | 10.7 | 6.51 µM [falling, single point] |  |
| O=C(c1cccc(F)c1)N1CCN(C(=O)C(c2ccccc2)c2ccccc2)CC1 | 7.39 | 2.91 µM [rising, single point] |  |
| Cc1cnc(C(=O)OCC(=O)N2c3ccccc3CC2C)cn1 (stereo unspecified) | 29.9 |  |  |
| O=C(COC(=O)CC12CC3CC(CC(C3)C1)C2)Nc1cccnc1Cl | -7.98 |  |  |
| CC(C)(C)c1ccc(OCCC(=O)NCCc2ccc(S(N)(=O)=O)cc2)cc1 | -0.54 | 2.06 µM [falling, partial curve] |  |
| CCCCOCCCNC(=O)N[C@H](C(=O)O)C(C)CC (stereo partly specified) | -50.2 |  | 20.6 µM [falling, partial curve, poor fit] |
| CCc1ccc(OCC(=O)N/N=C(\C)c2ccc(OC(F)F)cc2)cc1 | -16.7 | 6.51 µM [rising, single point] |  |
| Cc1nnc(SCC(=O)NNC(=O)c2ccco2)s1 | -38.6 |  | 36.6 µM [falling, partial curve, poor fit] |
| Cc1nnsc1C(=O)Nc1ccc(S(=O)(=O)N2CCCCC2C)cc1 (stereo unspecified) | -1.53 | 3.26 µM [rising, single point] |  |
| O=C(NC1CCCC1)c1cccc(Cl)c1 | 16.2 | 0.731 µM [rising, full curve, poor fit] |  |
| CCOC(=O)c1cnc(SCC(=O)N2CCC(C(N)=O)CC2)nc1N | 3.92 | 29.1 µM [rising, single point] |  |
| COc1ccc([N+](=O)[O-])cc1NS(=O)(=O)c1ccc(Cl)c(C(=O)Nc2sc3c(c2C#N)CCCCC3)c1 |  | 0.13 µM [falling, full curve, poor fit] |  |
| CC(=O)C[C@@H](O)CC(=O)[C@H]1OC(=O)CC/C=C\Cc2ccccc21 | -11.1 | 0.00461 µM [rising, full curve, poor fit] |  |
| COc1ccc(C(=O)Nc2ccc(S(=O)(=O)N3CCOCC3)cc2)cc1OC | -8.33 | 3.66 µM [rising, partial curve] |  |
| Cn1nnc(C(O)CN2CCOCC2)n1 (stereo unspecified) | -11.2 |  |  |
| CC1CCN(C(=O)Cn2c3ccccc3c3nc4n(c(=O)c32)CCS4)CC1 |  | 5.17 µM [falling, full curve] |  |
| Cc1ccnc(Nc2nc(-c3ccc(Cl)cc3)cs2)c1 | 5.26 |  |  |

Entries of single compounds, quoted from the list:
CC(C)(C)c1ccc(OCCC(=O)NCCc2ccc(S(N)(=O)=O)cc2)cc1 as listed: cell number change [%]: -0.54; AC50 [1]: 2.06 µM [falling, partial curve]
Cn1c(SCC(=O)NNC(=S)Nc2ccccc2)nnc1-c1ccncc1 as listed: cell number change [%]: -1.2; AC50 [1]: 6.51 µM [falling, single point]
